Laboratory results from patent US8343503B2, “Contiguous overlapping peptides for treatment of birch pollen allergy” (Anergis S.A., priority 2009, dated 2013).
Part of at least one peptide drawing is inferred or uncertain, most often the ends. No end group written: not given here.

Test system: Bet v 1 specific IgE
Experiment: Competition ELISA: IgE binding of COPs compared to r Bet v 1
Design: species or system human
Details: serial dilutions starting at 10 μM pre-incubated with serum of birch pollen allergic subjects; FIG. 1
Experimental: Recombinant Bet v 1 at 0.5 μg/ml (r Bet v 1 obtained from Biomay, Austria) was coated overnight on 96-well Nunc Maxisorp® immunoplates (Life Technologies, Basel, Switzerland). After blocking with 1% BSA, ten-fold dilutions of patient serum were added. […] The sera of three allergic patients were selected for high IgE level and clear signal over background and used to test for competition with the peptides. Serial dilutions of each COP, namely AllerT1, AllerT2, AllerT3, AllerT4, AllerT5, AllerT6, AllerT7 and AllerT8, or mixtures of AllerT1-3, AllerT4-5 and AllerT6-8, starting at 10 μM, were pre-incubated with the three selected sera overnight at 4° C. Sera were then incubated on r Bet v 1 coated 96-well plates and residual IgE binding was determined as described above. r Bet v 1 dilutions were used as control for inhibition, whereas BSA was used as control for possible non-specific inhibition.

Row | Compound | competition for IgE binding to coated r Bet v 1
1 | CC[C@H](C)[C@H](NC(=O)[C@H](C)NC(=O)[C@H](CCC(N)=O)NC(=O)[C@@H]1CCCN1C(=O)[C@H](C)NC(=O)[C@@H](NC(=O)[C@H](CCCCN)NC(=O)[C@@H]1CCCN1C(=O)[C@H](Cc1ccccc1)NC(=O)[C@H](CC(C)C)NC(=O)[C@H](CC(N)=O)NC(=O)[C@H](CC(=O)O)NC(=O)CNC(=O)[C@H](CC(=O)O)NC(=O)[C@H](CC(C)C)NC(=O)[C@@H](NC(=O)[C@H](Cc1ccccc1)NC(=O)[C@H](C)NC(=O)[C@H](CCCCN)NC(=O)[C@H](Cc1ccccc1)NC(=O)[C@H](CC(C)C)NC(=O)[C@H](CCCNC(=N)N)NC(=O)[C@H](C)NC(=O)[C@H](C)NC(=O)[C@@H]1CCCN1C(=O)[C@@H](NC(=O)[C@@H](NC(=O)[C@H](CO)NC(=O)[C@@H](NC(=O)[C@@H](NC(=O)[C@H](CCC(=O)O)NC(=O)[C@@H](NC(=O)[C@H](CCC(=O)O)NC(=O)[C@H](Cc1ccc(O)cc1)NC(=O)[C@H](CC(N)=O)NC(=O)[C@H](Cc1ccccc1)NC(=O)[C@@H](NC(=O)CN)C(C)C)[C@@H](C)O)[C@@H](C)O)[C@@H](C)O)C(C)C)[C@@H](C)CC)[C@@H](C)CC)C(C)C)C(=O)N[C@@H](CO)C(=O)N[C@@H](CO)C(=O)N[C@H](C(=O)N[C@@H](CCC(=O)O)C(=O)N[C@@H](CC(N)=O)C(=O)N[C@H](C(=O)N[C@@H](CCC(=O)O)C(=O)NCC(=O)N[C@@H](CC(N)=O)C(=O)NCC(=O)NCC(=O)O)[C@@H](C)CC)C(C)C [AllerT1] | no competition
2 | VATPDGGSILKISNKYHTKGDHEVKAEQVKASKEMGETLLRAVESYLLAHSDAYN [AllerT3] | no competition
